Some of these results come from one statement about several compounds together.
Target: NSD family protein
Assay: IC50 for an NSD family protein (compounds tested for binding)

Row | SMILES | IC50 [µM]
1 | CNc1nc2c(O)cc(N3CC3C)cc2s1 (stereo not drawn) [Compound 153] | < 20
2 | Nc1nc2c(O)cc(N3CC3Cc3ccccc3)cc2s1 (stereo not drawn) [Compound 154] | < 20
3 | Nc1nc2c(O)cc(N3CC3)cc2s1 [Compound 148] | < 20
4 | Nc1nc2c(O)cc(N=C=S)cc2s1 [Compound 36] | < 20
5 | Nc1nc2c(O)cc(N3CC3Cc3cccc(Cl)c3)cc2s1 (stereo not drawn) [Compound 160] | < 20
6 | Nc1nc2c(O)cc(N3CC3Cc3ccccc3F)cc2s1 (stereo not drawn) [Compound 156] | < 20

From US11324729B2, “NSD family inhibitors and methods of treatment therewith” (The Regents of the University of Michigan, priority 2017, dated 2022)
